Drawing on PubChem BioAssay (NCATS), this text covers AC50 and IC50 for 23 compounds.

Amino acid sequences for entries named in this document (tags omitted). A change or cut given only in a name is not applied to a line headed by its entry.
UniProt P21964: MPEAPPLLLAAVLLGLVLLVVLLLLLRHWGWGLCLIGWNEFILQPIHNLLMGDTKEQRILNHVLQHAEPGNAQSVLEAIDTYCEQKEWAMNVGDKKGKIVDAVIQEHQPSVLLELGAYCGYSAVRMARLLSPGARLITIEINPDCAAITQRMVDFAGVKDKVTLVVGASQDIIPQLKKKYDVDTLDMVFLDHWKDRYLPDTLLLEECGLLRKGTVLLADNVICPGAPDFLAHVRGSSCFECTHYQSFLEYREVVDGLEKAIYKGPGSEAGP

Values joined by “and” are separate entries in the source; they are usually repeats but may differ in a detail not shown here. Equal values may be shown once. Some of the results follow. Further columns of the screen follow, without active or inactive calls. Compounds called inactive in the main read-out are mostly missing here. Potencies come from curve fits of mixed quality, noted in brackets.

System in one test: not listed separately
Put plainly: qHTS Assay for Modulators of Human Peripheral Myelin Protein 22 (PMP22) Expression/Activity (AID 1967). The note with it: Cell-based PMP22 reporter, dual-color luciferase ratio; measured here: red reporter channel AC50; EF-alpha promoter control reporter in MSC80 mouse Schwann cells. An outline of the steps: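 Mouse MSC80 Schwann line, Pmp22 promoter–CBG68 reporter, EF-alpha–CBR internal control. 24h compound exposure, 37 °C/5% CO2, DMEM + 10% FBS. Readout: corrected green/red luminescence ratio, normalized to untreated cells; concentration-response curves fitted and classified.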
The term AC50 denotes the concentration at which the activity in the assay is half-maximal. As to `NC[C@H](O)c1ccc(O)c(O)c1`, the AC50 is 95.3 µM [falling, single point].

With `C=CCN1CCc2cc(O)c(O)cc2C(c2ccccc2)C1` (stereo not drawn), the AC50 is 67.5 µM [falling, partial curve, poor fit].

As to `O=C(O)Cc1ccc(O)c(O)c1`, the half-maximal activity concentration (AC50) is 23.9 µM [falling, full curve].

`Oc1ccc(C2CNCc3sccc32)cc1O` (stereo not drawn): the half-maximal activity concentration (AC50) is 67.5 µM [falling, partial curve].

In the case of `COc1cc(/C=C(\C#N)C(=O)c2ccc(O)c(O)c2)cc(I)c1O`, the AC50 is 67.5 µM [falling, partial curve].

System in another test: not listed separately
Description: qHTS Validation Assay to Find Inhibitors of Chronic Active B-Cell Receptor Signaling (AID 485345). As to conditions: ABC-DLBCL cells, chronic BCR signaling reporter; measured here: CBG/CBR ratio read-out. In short, it runs like this:
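Read-out: ratio of filter-corrected green (IkappaBalpha fusion) to red (native) luciferase signal in doxycycline-induced TMD8 cells after 4 h at 37C. Titration spanned 46 uM–3 nM; Data were normalised to basal cells and 10 uM MG-132 wells.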
A general note: In qHTS, concentration-response curves come from the screen itself.
As to `OCC1O[C@H]([S-])[C@H](O)[C@@H](O)[C@@H]1O.[Au+]` (stereo partly drawn), the AC50 was 8.2 µM [falling, partial curve].

Take `CCOC(=O)N1CCN(/[N+]([O-])=N/Oc2ccc([N+](=O)[O-])cc2[N+](=O)[O-])CC1`: the concentration at half-maximal activity (AC50) was 16.4 µM [falling, single point].

On to `COc1cc(/C=C(\C#N)C(=O)c2ccc(O)c(O)c2)cc(I)c1O`, for which the AC50 is 16.4 µM [falling, single point].

Still in this test, the particulars now being: ABC-DLBCL cells, chronic BCR signaling reporter; measured here: CBR control luciferase (viability counter).
With `NS(=O)(=O)c1cccc2c1c([N+](=O)[O-])cc1nc(O)c(O)nc12`, the AC50 is 29.1 µM [rising, single point].

Take `CC[C@H](C)C(=O)O[C@H]1CCC=C2C=C[C@H](C)[C@H](CC[C@@H]3C[C@@H](O)CC(=O)O3)[C@H]21`: the AC50 was 14.6 µM [falling, single point].

As to `OCC1O[C@H]([S-])[C@H](O)[C@@H](O)[C@@H]1O.[Au+]` (stereo partly drawn), the concentration at half-maximal activity (AC50) is 1.3 µM [falling, partial curve].

On to `CCOC(=O)N1CCN(/[N+]([O-])=N/Oc2ccc([N+](=O)[O-])cc2[N+](=O)[O-])CC1`, for which the AC50 was 4.61 µM [rising, partial curve].

On to `N.N.N.N.N.N.N.N.N.N.N.N.N.N.O.O.[Ru+4].[Ru+5].[Ru+5]`, for which the AC50 was 23.1 µM [rising, single point].

For the compound `COc1cc(/C=C(\C#N)C(=O)c2ccc(O)c(O)c2)cc(I)c1O`, the concentration at half-maximal activity (AC50) was 18.4 µM [falling, single point].

With `Brc1c(Br)c(Br)c2[nH]cnc2c1Br`, the AC50 is 7.31 µM [falling, partial curve].

Another test addresses Catechol O-methyltransferase (Homo sapiens) (UniProt P21964). Description: Confirmatory Screen for Target Class Profiling of Small Molecule Inhibitors of Methyltransferases (AID 1745852). As to conditions: MTase-Glo luminescence, SAH detection, recombinant enzyme; measured here: COMT inhibition potency.
A word on the IC50: it is the concentration that inhibits the measured activity by half. With `CCCCc1nc2cc(/C=C/C(=O)NO)ccc2n1CCN(CC)CC`, the concentration for half-maximal inhibition (IC50) was 19.3 µM [falling, partial curve, poor fit].

Take `CNc1cc2c(Nc3cccc(Br)c3)ncnc2cn1`: the half-maximal inhibitory concentration (IC50) is 21.5 µM [falling, partial curve].

Consider `CN(C)CCCNC(=O)c1ccc(-c2cc(O)c3ncccc3c2)cc1`, for which the half-maximal inhibitory concentration (IC50) is 482 nM [falling, full curve] and 1.72 µM [falling, full curve].

Take `Oc1ccc2ccccc2c1SSc1c(O)ccc2ccccc12`: the IC50 was 5.44 µM [rising, partial curve, poor fit].

For the compound `NS(=O)(=O)c1cccc2c1c([N+](=O)[O-])cc1nc(O)c(O)nc12`, the half-inhibitory concentration (IC50) was 3.06 µM [falling, full curve].

In the case of `CC[C@H](C)C(=O)O[C@H]1CCC=C2C=C[C@H](C)[C@H](CC[C@@H]3C[C@@H](O)CC(=O)O3)[C@H]21`, the 50% inhibitory concentration (IC50) is 21.7 µM [falling, partial curve].

On to `OC[C@H]1O[C@@H](Oc2ccc(O)c3cccc(O)c23)[C@H](O)[C@@H](O)[C@@H]1O`, for which the IC50 is 2.98 µM [falling, full curve].

Take `OCC1O[C@H]([S-])[C@H](O)[C@@H](O)[C@@H]1O.[Au+]` (stereo partly drawn): the IC50 was 27.3 µM [falling, partial curve].

`COc1ccccc1-c1[nH]nc2ncc(C(=O)NCC3CC3)nc12`: the IC50 is 44.1 µM [falling, single point].

In the case of `CCOC(=O)N1CCN(/[N+]([O-])=N/Oc2ccc([N+](=O)[O-])cc2[N+](=O)[O-])CC1`, the IC50 is 1.93 µM [falling, full curve].

Take `NC[C@H](O)c1ccc(O)c(O)c1`: the concentration for half-maximal inhibition (IC50) was 24.3 µM [rising, partial curve].

Regarding `CCCCN(C)C(=O)c1c(C)sc2ccn(CCC)c(=O)c12`, the IC50 was 9.61 µM [falling, full curve].

Consider `N.N.N.N.N.N.N.N.N.N.N.N.N.N.O.O.[Ru+4].[Ru+5].[Ru+5]`, for which the half-inhibitory concentration (IC50) was 24.3 µM [falling, partial curve, poor fit].

On to `COc1c(O)cc2c(c1O)[C@@H]1O[C@H](CO)[C@@H](O)[C@H](O)[C@H]1OC2=O`, for which the half-inhibitory concentration (IC50) was 1.49 µM [falling, full curve].

For the compound `Oc1ccccc1O`, the IC50 is 6.85 µM [rising, partial curve].

For the compound `CCCSc1nc(N[C@@H]2C[C@H]2c2ccc(F)c(F)c2)c2nnn([C@@H]3C[C@H](OCCO)[C@@H](O)[C@H]3O)c2n1`, the IC50 is 30.4 µM [falling, partial curve].

In the case of `CC(C)(O)C(=O)N1CCN(c2ccc(C(F)(F)F)c(C3=C(c4c[nH]c5ccccc45)C(=O)NC3=O)c2)CC1`, the concentration for half-maximal inhibition (IC50) was 24.1 µM [falling, partial curve].

As for `C=CCN1CCc2cc(O)c(O)cc2C(c2ccccc2)C1` (stereo not drawn), the IC50 is 6.85 µM [rising, partial curve].

For the compound `O=C(O)Cc1ccc(O)c(O)c1`, the half-inhibitory concentration (IC50) is 8.63 µM [rising, partial curve].

On to `Cc1nc([C@](C)(O)CO)sc1-c1cnc(N)c(O[C@H](C)c2cc(F)ccc2-n2nccn2)c1`, for which the IC50 is 19.2 µM [falling, partial curve].

Consider `Oc1ccc(C2CNCc3sccc32)cc1O` (stereo not drawn), for which the 50% inhibitory concentration (IC50) was 6.11 µM [rising, full curve].

As to `COc1cc(/C=C(\C#N)C(=O)c2ccc(O)c(O)c2)cc(I)c1O`, the IC50 is 0.968 µM [rising, full curve].

On to `Brc1c(Br)c(Br)c2[nH]cnc2c1Br`, for which the IC50 was 21.7 µM [falling, partial curve, poor fit].
